Results deposited as PubChem BioAssay AID1259308 (NCATS, 2017).
Assay: 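Genes whose loss raises luciferase production in HEK293 cells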 (primary screen). Cell system: human HEK293 embryonic kidney cells stably expressing firefly luciferase (HEK-CMV-Luc2-Hygro). Knock-down reagent: single siRNA against human genes, 0.8 pmol siRNA per well. Time to read-out: 72 h. Measurement: 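Luciferase light (ONE-Glo) measured on one replicate plate set and viability (CellTiter-Glo) on the other, scaled to a negative control siRNA, with robust z-scores and luciferase per cell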. Scale: total luciferase, z-score: higher = more reporter protein produced. Call rule: 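Active when the median/MAD z-score for overall luciferase is greater than 3; a gene was taken forward for validation with new siRNAs if at least two of its three siRNAs passed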. Calls: active = raised luciferase; inactive = no rise.
The whole screen tested about 59,000 reagents; below is a random part of them. Of all reagents, about 1,510 (2.6%) got an active call. 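Calls use total luciferase alone and ignore viability, so some active siRNAs may act by altering cell number.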 Reagents against one gene are numbered here. Further read-outs or replicates are left out here. No sequences are given here.

total luciferase, z-score, by gene and reagent
MYF5 (myogenic factor 5): #1 -0.877 inactive; #2 -1.04 inactive; #3 1.73 inactive
P2RY2 (purinergic receptor P2Y2): #1 0.103 inactive; #2 -1.8 inactive; #3 1.9 inactive
POLR2M (RNA polymerase II subunit M): #1 0.11 inactive; #2 0.868 inactive; #3 2.01 inactive
GNA14 (G protein subunit alpha 14): #1 -2.13 inactive; #2 0.46 inactive; #3 -0.214 inactive
VSIG10L2 (V-set and immunoglobulin domain containing 10 like 2): #1 0.0941 inactive; #2 3.41 active; #3 -1.26 inactive
IL22RA1 (interleukin 22 receptor subunit alpha 1): #1 0.231 inactive; #2 -0.757 inactive; #3 0.456 inactive
LYRM7 (LYR motif containing 7): #1 -0.33 inactive; #2 -0.208 inactive; #3 0.133 inactive
FAM184A (family with sequence similarity 184 member A): #1 0.513 inactive; #2 -0.942 inactive; #3 0.112 inactive
BTN3A3 (butyrophilin subfamily 3 member A3): #1 0.404 inactive; #2 -1.23 inactive; #3 -1.19 inactive

Hits, of those listed so far:
total luciferase, z-score, by gene and reagent
VSIG10L2 (V-set and immunoglobulin domain containing 10 like 2): #2 3.41 active

Additional results:
total luciferase, z-score, by gene and reagent
FGG (fibrinogen gamma chain): #1 -1.36 inactive; #2 -0.953 inactive; #3 -1.32 inactive
DEPDC5 (DEP domain containing 5, GATOR1 subcomplex subunit): #1 0.307 inactive; #2 -0.57 inactive; #3 -1.11 inactive
LTO1 (LTO1 maturation factor of ABCE1): #1 2.22 inactive; #2 2.63 inactive; #3 0.486 inactive
PCDH11Y (protocadherin 11 Y-linked): #1 -0.622 inactive; #2 -0.083 inactive; #3 -0.00184 inactive
TRMT112P6 (tRNA methyltransferase subunit 11-2 pseudogene 6): #1 0.223 inactive; #2 1.08 inactive; #3 1.34 inactive
RGS7 (regulator of G protein signaling 7): #1 -0.626 inactive; #2 0.206 inactive; #3 0.211 inactive
TIGD1 (tigger transposable element derived 1): #1 0.709 inactive; #2 -1.01 inactive; #3 -1.02 inactive
HMCES (5-hydroxymethylcytosine binding, ES cell specific): #1 0.475 inactive; #2 1.78 inactive; #3 -0.503 inactive
KYNUP2 (kynureninase pseudogene 2): #1 0.157 inactive; #2 -0.673 inactive; #3 0.333 inactive
TNNT1 (troponin T1, slow skeletal type): #1 1.4 inactive; #2 -1.59 inactive; #3 1.05 inactive
